Screen size: about 300,000 compounds; about 3,700 (1.2%) were called active. The shares of active, inactive and inconclusive entries below differ from those in the screen. The call rests on the fitted dose curve; tested in HEK293 cells. Where the call is inconclusive, the potency comes from a doubtful curve fit.
Experiment: qHTS for Inhibitors of binding or entry into cells for Lassa Virus; further: nearly all actives have a fitted effect of over 50% in size
Conditions: Lassa virus pseudotype entry inhibition, cell reporter; activity change, negative = inhibition: at 37.9 µM (top of the series) unless noted
On the % scale 0 is the no-effect control and ±100 the full control effect; potency means the concentration at half of the fitted maximal effect.

Compound | Potency | activity change, negative = inhibition
CCN(CC)S(=O)(=O)c1ccc(C(=O)NCC2CCCCC2)cc1 | active: 7.08 µM | 
COc1ccccc1C(=O)O/N=C(\N)c1ccccn1 | inconclusive: 12.6 µM [inhibitor, single point] | 
COc1ccccc1C(=O)Nc1ccccc1C(=O)OCc1cc(=O)n2c(C)csc2n1 |  | inactive: 10.2% [at 46.1 µM]
N/C(=N\OC(=O)COc1cc(Cl)c(Cl)cc1Cl)c1ccccn1 | inconclusive: 14.1 µM [inhibitor, partial curve, poor fit] | 
COc1cc2c(cc1NC(=O)C(Cl)Cl)-c1ccc(NC(=O)C(Cl)Cl)cc1C2 | inconclusive: 20 µM [inhibitor, single point] | 
Cc1ccc(C)c(CN2CCC(n3nnc4cc(F)ccc43)CC2)c1 | inconclusive: 3.26 µM [inhibitor, partial curve, poor fit] | 
O=C(c1ccccc1)N1CCCOC1c1ccccc1 (stereo unspecified) |  | inactive: 13.3%
Cc1cc(C)n2c(SCC(=O)N(CC(C)C)c3c(N)n(CC(C)C)c(=O)[nH]c3=O)nnc2n1 | inconclusive: 1.78 µM [inhibitor, partial curve, poor fit] | 
CCCOc1ccc(-c2nc(SCc3ccccc3)[nH]c(=O)c2C#N)cc1OC | inconclusive: 7.08 µM [inhibitor, partial curve] | 
Cc1cccc(OCC(=O)Nc2ccc(CN3CCOCC3)cc2)c1C |  | inactive: 12.5%
CN(C)/C=C(/C(=O)c1ccc(Cl)cc1)S(=O)(=O)c1ccccc1 | inconclusive: 18.3 µM [activator, single point] | 
Cc1c(NC(=O)NC(=O)c2ccc(F)cc2)c(=O)n(-c2ccccc2)n1C |  | inactive: 19.8%
Cc1cc(C(=O)Nc2cccc(C(F)(F)F)c2)c2c(C)nn(-c3cccc(F)c3)c2n1 | inconclusive: 7.94 µM [activator, single point] | 
Cc1nn2c3c(cnc2c1-c1ccc(F)cc1)C(=O)CC(c1ccccc1)C3 (stereo unspecified) |  | inactive: -0.477% [at 46.1 µM]
Oc1ccc(Cc2ccc(Cl)cc2)c(O)c1 |  | inactive: -3.06% [at 46.1 µM]
O=C(Cn1c(=O)n(CCCS(=O)(=O)C2CCCCC2)c(=O)c2ccccc21)Nc1ccccc1F |  | inactive: -6.65% [at 46.1 µM]
CCCOc1ccc(C(=O)C(c2ccccc2)N2CCOCC2)cc1 (stereo unspecified) | inconclusive: 22.4 µM [inhibitor, single point] | 
Cn1nc(C(=O)OCC(=O)Nc2ccc3ccccc3c2)c2ccccc2c1=O |  | inactive: -1.76%
Cc1cc(NC(=O)C(C)SCC(=O)Nc2ccc(Br)cc2Br)no1 (stereo unspecified) | inconclusive: 1.26 µM [inhibitor, single point] | 
COc1ccc(-c2cc(C(=O)Nc3ccc(OC)c(OC)c3)no2)cc1 | inconclusive: 5.62 µM [inhibitor, single point] | 
CSc1nc(C)cc(OCC(=O)N/N=C/c2ccccc2O)n1 | inconclusive: 1.78 µM [inhibitor, full curve] | 
Cc1cc(C)nc(NC(=O)Cc2ccc([N+](=O)[O-])cc2)c1 | inconclusive: 15.8 µM [activator, single point] | 
Cc1ccc(CNC(=O)CCCn2c(=O)c3ccccc3n(Cc3ccccc3Cl)c2=O)cc1 |  | inactive: 3.81% [at 46.1 µM]

A run of entries taken from the entries so far:
Compound | Potency | activity change, negative = inhibition
CCCOc1ccc(-c2nc(SCc3ccccc3)[nH]c(=O)c2C#N)cc1OC | inconclusive: 7.08 µM [inhibitor, partial curve] | 
Cc1cccc(OCC(=O)Nc2ccc(CN3CCOCC3)cc2)c1C |  | inactive: 12.5%
CN(C)/C=C(/C(=O)c1ccc(Cl)cc1)S(=O)(=O)c1ccccc1 | inconclusive: 18.3 µM [activator, single point] | 
Cc1c(NC(=O)NC(=O)c2ccc(F)cc2)c(=O)n(-c2ccccc2)n1C |  | inactive: 19.8%
Cc1cc(C(=O)Nc2cccc(C(F)(F)F)c2)c2c(C)nn(-c3cccc(F)c3)c2n1 | inconclusive: 7.94 µM [activator, single point] | 
Cc1nn2c3c(cnc2c1-c1ccc(F)cc1)C(=O)CC(c1ccccc1)C3 (stereo unspecified) |  | inactive: -0.477% [at 46.1 µM]
Oc1ccc(Cc2ccc(Cl)cc2)c(O)c1 |  | inactive: -3.06% [at 46.1 µM]
O=C(Cn1c(=O)n(CCCS(=O)(=O)C2CCCCC2)c(=O)c2ccccc21)Nc1ccccc1F |  | inactive: -6.65% [at 46.1 µM]
CCCOc1ccc(C(=O)C(c2ccccc2)N2CCOCC2)cc1 (stereo unspecified) | inconclusive: 22.4 µM [inhibitor, single point] | 
Cn1nc(C(=O)OCC(=O)Nc2ccc3ccccc3c2)c2ccccc2c1=O |  | inactive: -1.76%
Cc1cc(NC(=O)C(C)SCC(=O)Nc2ccc(Br)cc2Br)no1 (stereo unspecified) | inconclusive: 1.26 µM [inhibitor, single point] | 
COc1ccc(-c2cc(C(=O)Nc3ccc(OC)c(OC)c3)no2)cc1 | inconclusive: 5.62 µM [inhibitor, single point] | 
CSc1nc(C)cc(OCC(=O)N/N=C/c2ccccc2O)n1 | inconclusive: 1.78 µM [inhibitor, full curve] | 
Cc1cc(C)nc(NC(=O)Cc2ccc([N+](=O)[O-])cc2)c1 | inconclusive: 15.8 µM [activator, single point] | 

Remaining list, next part:

Compound | Potency | activity change, negative = inhibition
COc1ccc(S(=O)(=O)N2CC(C(=O)O)Oc3ccccc32)cc1 (stereo unspecified) | inconclusive: 11.2 µM [activator, single point] | 
CCCCNC(=O)c1cc(-c2ccc(F)cc2)on1 | inconclusive: 32.6 µM [inhibitor, single point] | 
O=C(C=Cc1ccccc1)c1cccs1 |  | inactive: 19.4%
CC(=O)Nc1ccc(S(=O)(=O)NC2CCS(=O)(=O)C2)cc1Cl (stereo unspecified) | inconclusive: 35.5 µM [inhibitor, single point] | 
Cc1ccc(CCNC(=O)C(C)n2nc(C)c3c(C)n(-c4ccccc4)nc3c2=O)cc1 (stereo unspecified) |  | inactive: 2.78% [at 46.1 µM]
COc1ccc(-c2cc(C(F)(F)F)nc(SCC(=O)N3CCCCC3)n2)cc1 |  | inactive: 8.48% [at 46.1 µM]
COc1ccc(C(=O)N2CCC(c3ccccc3)CC2)c(OC)c1OC |  | inactive: 17.9%
CCOc1ccc(CNCCN2CCCC2)cc1 | inconclusive: 17.8 µM [inhibitor, single point] | 
COc1ccc(-n2ncc(Cl)c(Cl)c2=O)cc1 | inconclusive: 11.2 µM [inhibitor, partial curve, poor fit] | 
CCN(CCO)C(=O)c1ccc2nc(Cc3ccc(OC)cc3)oc2c1 | inconclusive: 1.58 µM [inhibitor, partial curve, poor fit] | 
Cc1ccc(OCC(=O)N(Cc2ccc(N(C)C)cc2)CC2CCCO2)cc1C (stereo unspecified) | inconclusive: 3.16 µM [inhibitor, partial curve, poor fit] | 
Cc1ccc(SCC(=O)NCCSC(C)(C)C)cc1 |  | inactive: -6.97%
CN(C)c1ccc(/C=N/NC(=O)CN(c2cccc(Cl)c2)S(C)(=O)=O)cc1Br | inconclusive: 7.08 µM [inhibitor, full curve, poor fit] | 
CC(=O)N(C)c1ccc(NC(=O)/C=C/c2ccccc2Cl)cc1 | inconclusive: 1.26 µM [inhibitor, partial curve, poor fit] | 
Cc1occc1C(=O)Nc1nn[nH]n1 |  | inactive: 1.4%
Cc1cc2c(n1-c1ccc(C(=O)NCc3cccc(Br)c3)cc1)CCC(C)C2 (stereo unspecified) | inconclusive: 14.1 µM [inhibitor, single point] | 
COc1ccc(CCNC(=O)Cc2cccs2)cc1 | inconclusive: 31.6 µM [inhibitor, single point] | 
CC1=C(C(=O)Nc2ccccc2)C2(CCCCC2)C(C#N)=C(SCC(N)=O)N1 |  | inactive: -6.7%
CCOC(=O)c1c(-c2ccccc2)oc2ccc(OCc3ccc(C)cc3)cc12 | inconclusive: 35.5 µM [inhibitor, single point] | 
Cc1cccc2nc(CSc3nnc4ccccn34)cn12 | inconclusive: 0.58 µM [activator, single point] | 
CC(=O)c1cccc(NC(=O)C2CCN(c3nnc(-n4cccc4)s3)CC2)c1 | inconclusive: 20 µM [activator, single point] | 
CN(C)/C=N/c1cnc(C(=O)c2ccc(Cl)cc2)n1C | inconclusive: 1.26 µM [activator, partial curve] | 
CCCCN1C(=O)C(NC(C)=O)c2cc(Br)ccc21 (stereo unspecified) | inconclusive: 10 µM [inhibitor, partial curve, poor fit] | 
